Laboratory results taken from patent US20180086804A1 (COMMISSARIAT A L ENERGIE ATOMIQUE ET AUX ENERGIES …, published 2018).
No constants are given. Whether binding was seen depends on the method and setting.

How the values were obtained:
Assay in all cases: competition ELISA
[1] = biological target: T1, HLA-DRB3 (HLA-DRB3*01:01) (human)
T1 construct: mature; purified from homozygous EBV-transformed lymphoblastoid cells with antibody L243

[2] = biological target: T2, HLA-DRB4 (HLA-DRB4*01:01) (human)
T2 construct: mature; purified from homozygous EBV-transformed lymphoblastoid cells with antibody L243

[3] = biological target: T3, HLA-DR3 (HLA-DRB1*03:01) (human)
T3 construct: mature; purified from homozygous EBV-transformed lymphoblastoid cells with antibody L243

[4] = biological target: T4, HLA-DR7 (HLA-DRB1*07:01) (human)
T4 construct: mature; purified from homozygous EBV-transformed lymphoblastoid cells with antibody L243

[5] = biological target: T5, HLA-DRB5 (HLA-DRB5*01:01) (human)
T5 construct: mature; purified from homozygous EBV-transformed lymphoblastoid cells with antibody L243

[6] = biological target: T6, HLA-DR11 (HLA-DRB1*11:01) (human)
T6 construct: mature; purified from homozygous EBV-transformed lymphoblastoid cells with antibody L243

[7] = biological target: T7, HLA-DR13 (HLA-DRB1*13:01) (human)
T7 construct: mature; purified from homozygous EBV-transformed lymphoblastoid cells with antibody L243

[8] = biological target: T8, HLA-DR4 (HLA-DRB1*04:01) (human)
T8 construct: mature; purified from homozygous EBV-transformed lymphoblastoid cells with antibody L243

[9] = biological target: T9, HLA-DR15 (HLA-DRB1*15:01) (human)
T9 construct: mature; purified from homozygous EBV-transformed lymphoblastoid cells with antibody L243

Binder | binding [1] | binding [2] | binding [3] | binding [7] | further results
MALRVTRNSKINAEN (C-terminal amide) [CCNB1 1-15] | no binding (tested: rel. affinity >362) | no binding (tested: rel. affinity >961) | no binding (tested: rel. affinity >825) | – | –
EPILVDTASPSPMET (C-terminal amide) [CCNB1 118-132] | – | no binding (tested: rel. affinity >961) | – | no binding (tested: rel. affinity >1949) | binding [4]: no binding (tested: rel. affinity >1036); binding [5]: no binding (tested: rel. affinity >3467); binding [6]: no binding (tested: rel. affinity >1949)
PMLVPVPVSEPVPEP (C-terminal amide) [CCNB1 87-101] | no binding (tested: rel. affinity >362) | – | no binding (tested: rel. affinity >825) | no binding (tested: rel. affinity >1949) | binding [5]: no binding (tested: rel. affinity >3467); binding [6]: no binding (tested: rel. affinity >1949)
AKINMAGAKRVPTAP (C-terminal amide) [CCNB1 17-31] | no binding (tested: rel. affinity >362) | no binding (tested: rel. affinity >961) | – | – | binding [8]: no binding (tested: rel. affinity >1771)
PNLCSEYVKDIYAYL (C-terminal amide) [CCNB1 164-178] | – | – | no binding (tested: rel. affinity >825) | no binding (tested: rel. affinity >1949) | binding [6]: no binding (tested: rel. affinity >1949)
RQLEEEQAVRPKYLL (C-terminal amide) [CCNB1 179-193] | no binding (tested: rel. affinity >362) | no binding (tested: rel. affinity >961) | no binding (tested: rel. affinity >825) | – | binding [9]: no binding (tested: rel. affinity >329); binding [8]: no binding (tested: rel. affinity >1771); binding [6]: no binding (tested: rel. affinity >1949)
QAVRPKYLLGREVTG (C-terminal amide) [CCNB1 185-199] | no binding (tested: rel. affinity >362) | no binding (tested: rel. affinity >961) | no binding (tested: rel. affinity >825) | – | binding [4]: no binding (tested: rel. affinity >1036); binding [9]: no binding (tested: rel. affinity >329)
DRFMQNNCVPKKMLQ (C-terminal amide) [CCNB1 231-245] | no binding (tested: rel. affinity >362) | no binding (tested: rel. affinity >961) | no binding (tested: rel. affinity >825) | no binding (tested: rel. affinity >1949) | binding [4]: no binding (tested: rel. affinity >1036); binding [9]: no binding (tested: rel. affinity >329)
HQIRQMEMKILRALN (C-terminal amide) [CCNB1 280-294] | – | no binding (tested: rel. affinity >961) | – | no binding (tested: rel. affinity >1949) | –
SKYEEMYPPEIGDFA (C-terminal amide) [CCNB1 256-270] | no binding (tested: rel. affinity >362) | no binding (tested: rel. affinity >961) | no binding (tested: rel. affinity >825) | no binding (tested: rel. affinity >1949) | –
PEIGDFAFVTDNTYT (C-terminal amide) [CCNB1 264-278] | – | no binding (tested: rel. affinity >961) | – | no binding (tested: rel. affinity >1949) | –
FAFVTDNTYTKHQIR (C-terminal amide) [CCNB1 269-283] | – | no binding (tested: rel. affinity >961) | – | no binding (tested: rel. affinity >1949) | –
RALNFGLGRPLPLHF (C-terminal amide) [CCNB1 291-305] | no binding (tested: rel. affinity >362) | no binding (tested: rel. affinity >961) | no binding (tested: rel. affinity >825) | no binding (tested: rel. affinity >1949) | –
MEMKILRALNFGLGR (C-terminal amide) [CCNB1 285-299] | no binding (tested: rel. affinity >362) | – | – | – | –
LHFLRRASKIGEVDV (C-terminal amide) [CCNB1 303-317] | no binding (tested: rel. affinity >362) | no binding (tested: rel. affinity >961) | – | – | –
LDYDMVHFPPSQIAA (C-terminal amide) [CCNB1 332-346] | no binding (tested: rel. affinity >362) | no binding (tested: rel. affinity >961) | no binding (tested: rel. affinity >825) | no binding (tested: rel. affinity >1949) | –
HFPPSQIAAGAFCLA (C-terminal amide) [CCNB1 338-352] | no binding (tested: rel. affinity >362) | no binding (tested: rel. affinity >961) | no binding (tested: rel. affinity >825) | no binding (tested: rel. affinity >1949) | binding [5]: no binding (tested: rel. affinity >3467); binding [8]: no binding (tested: rel. affinity >1771); binding [6]: no binding (tested: rel. affinity >1949)

Binder | binding [1] | binding [2] | binding [3] | binding [7] | further results
LALKILDNGEWTPTL (C-terminal amide) [CCNB1 351-365] | no binding (tested: rel. affinity >362) | no binding (tested: rel. affinity >961) | no binding (tested: rel. affinity >825) | no binding (tested: rel. affinity >1949) | –
GEWTPTLQHYLSYTE (C-terminal amide) [CCNB1 359-373] | no binding (tested: rel. affinity >362) | no binding (tested: rel. affinity >961) | no binding (tested: rel. affinity >825) | no binding (tested: rel. affinity >1949) | –
LSYTEESLLPVMQHL (C-terminal amide) [CCNB1 369-383] | – | no binding (tested: rel. affinity >961) | no binding (tested: rel. affinity >825) | no binding (tested: rel. affinity >1949) | –
KNVVMVNQGLTKHMT (C-terminal amide) [CCNB1 385-399] | no binding (tested: rel. affinity >362) | no binding (tested: rel. affinity >961) | – | – | binding [4]: no binding (tested: rel. affinity >1036)
ESLLPVMQHLAKNVV (C-terminal amide) [CCNB1 374-388] | no binding (tested: rel. affinity >362) | – | – | – | –
NKYATSKHAKISTLP (C-terminal amide) [CCNB1 402-416] | no binding (tested: rel. affinity >362) | no binding (tested: rel. affinity >961) | no binding (tested: rel. affinity >825) | no binding (tested: rel. affinity >1949) | binding [9]: no binding (tested: rel. affinity >329)
AKISTLPQLNSALVQ (C-terminal amide) [CCNB1 410-424] | no binding (tested: rel. affinity >362) | – | no binding (tested: rel. affinity >825) | – | binding [4]: no binding (tested: rel. affinity >1036); binding [5]: no binding (tested: rel. affinity >3467)
AKYLMELTMLDYDMV (C-terminal amide) [CCNB1 323-337] | – | – | – | no binding (tested: rel. affinity >1949) | –
GNMRAILIDWLVQVQ (C-terminal amide) [CCNB1 199-213] | – | – | – | no binding (tested: rel. affinity >1949) | –
RAILIDWLVQVQMKF (C-terminal amide) [CCNB1 202-216] | – | – | – | no binding (tested: rel. affinity >1949) | –
DWLVQVQMKFRLLQE (C-terminal amide) [CCNB1 207-221] | – | – | – | – | binding [8]: no binding (tested: rel. affinity >1771)
FRLLQETMYMTVSII (C-terminal amide) [CCNB1 216-230] | – | – | – | no binding (tested: rel. affinity >1949) | –
MTVSIIDRFMQNNCV (C-terminal amide) [CCNB1 225-239] | – | – | – | no binding (tested: rel. affinity >1949) | –
PQLNSALVQDLAKAV (C-terminal amide) [CCNB1 416-430] | – | – | – | no binding (tested: rel. affinity >1949) | –
TAMFIASKYEEMYPP (C-terminal amide) [CCNB1 250-264] | – | no binding (tested: rel. affinity >961) | – | – | –
GDFAFVTDNTYTKHQ (C-terminal amide) [CCNB1 267-281] | – | no binding (tested: rel. affinity >961) | – | – | –
PTLQHYLSYTEESLL (C-terminal amide) [CCNB1 363-377] | – | – | – | no binding (tested: rel. affinity >1949) | –
